Source: publication PMC12691818

Protein sequences, listed by entry. Tags and fused reporters are not part of them. Lines headed by an entry give the natural chain unless they say otherwise; changes in a name come on top.
UniProt A0A509ASP7: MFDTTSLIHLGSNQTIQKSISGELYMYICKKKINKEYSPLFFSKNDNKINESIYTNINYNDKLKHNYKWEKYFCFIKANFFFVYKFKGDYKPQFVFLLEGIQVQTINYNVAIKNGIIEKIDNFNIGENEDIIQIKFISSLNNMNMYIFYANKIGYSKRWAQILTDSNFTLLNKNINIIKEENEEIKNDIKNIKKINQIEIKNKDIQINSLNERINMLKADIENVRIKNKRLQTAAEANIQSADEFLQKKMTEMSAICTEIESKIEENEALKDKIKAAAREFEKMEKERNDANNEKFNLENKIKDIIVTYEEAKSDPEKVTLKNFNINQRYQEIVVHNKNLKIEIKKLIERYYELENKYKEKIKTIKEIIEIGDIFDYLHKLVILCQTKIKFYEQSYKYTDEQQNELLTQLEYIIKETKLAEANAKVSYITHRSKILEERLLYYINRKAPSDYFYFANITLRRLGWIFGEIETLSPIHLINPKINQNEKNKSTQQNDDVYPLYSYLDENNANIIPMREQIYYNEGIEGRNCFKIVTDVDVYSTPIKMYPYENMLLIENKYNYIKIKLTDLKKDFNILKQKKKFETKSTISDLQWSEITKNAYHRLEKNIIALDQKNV
UniProt A0A509AH92: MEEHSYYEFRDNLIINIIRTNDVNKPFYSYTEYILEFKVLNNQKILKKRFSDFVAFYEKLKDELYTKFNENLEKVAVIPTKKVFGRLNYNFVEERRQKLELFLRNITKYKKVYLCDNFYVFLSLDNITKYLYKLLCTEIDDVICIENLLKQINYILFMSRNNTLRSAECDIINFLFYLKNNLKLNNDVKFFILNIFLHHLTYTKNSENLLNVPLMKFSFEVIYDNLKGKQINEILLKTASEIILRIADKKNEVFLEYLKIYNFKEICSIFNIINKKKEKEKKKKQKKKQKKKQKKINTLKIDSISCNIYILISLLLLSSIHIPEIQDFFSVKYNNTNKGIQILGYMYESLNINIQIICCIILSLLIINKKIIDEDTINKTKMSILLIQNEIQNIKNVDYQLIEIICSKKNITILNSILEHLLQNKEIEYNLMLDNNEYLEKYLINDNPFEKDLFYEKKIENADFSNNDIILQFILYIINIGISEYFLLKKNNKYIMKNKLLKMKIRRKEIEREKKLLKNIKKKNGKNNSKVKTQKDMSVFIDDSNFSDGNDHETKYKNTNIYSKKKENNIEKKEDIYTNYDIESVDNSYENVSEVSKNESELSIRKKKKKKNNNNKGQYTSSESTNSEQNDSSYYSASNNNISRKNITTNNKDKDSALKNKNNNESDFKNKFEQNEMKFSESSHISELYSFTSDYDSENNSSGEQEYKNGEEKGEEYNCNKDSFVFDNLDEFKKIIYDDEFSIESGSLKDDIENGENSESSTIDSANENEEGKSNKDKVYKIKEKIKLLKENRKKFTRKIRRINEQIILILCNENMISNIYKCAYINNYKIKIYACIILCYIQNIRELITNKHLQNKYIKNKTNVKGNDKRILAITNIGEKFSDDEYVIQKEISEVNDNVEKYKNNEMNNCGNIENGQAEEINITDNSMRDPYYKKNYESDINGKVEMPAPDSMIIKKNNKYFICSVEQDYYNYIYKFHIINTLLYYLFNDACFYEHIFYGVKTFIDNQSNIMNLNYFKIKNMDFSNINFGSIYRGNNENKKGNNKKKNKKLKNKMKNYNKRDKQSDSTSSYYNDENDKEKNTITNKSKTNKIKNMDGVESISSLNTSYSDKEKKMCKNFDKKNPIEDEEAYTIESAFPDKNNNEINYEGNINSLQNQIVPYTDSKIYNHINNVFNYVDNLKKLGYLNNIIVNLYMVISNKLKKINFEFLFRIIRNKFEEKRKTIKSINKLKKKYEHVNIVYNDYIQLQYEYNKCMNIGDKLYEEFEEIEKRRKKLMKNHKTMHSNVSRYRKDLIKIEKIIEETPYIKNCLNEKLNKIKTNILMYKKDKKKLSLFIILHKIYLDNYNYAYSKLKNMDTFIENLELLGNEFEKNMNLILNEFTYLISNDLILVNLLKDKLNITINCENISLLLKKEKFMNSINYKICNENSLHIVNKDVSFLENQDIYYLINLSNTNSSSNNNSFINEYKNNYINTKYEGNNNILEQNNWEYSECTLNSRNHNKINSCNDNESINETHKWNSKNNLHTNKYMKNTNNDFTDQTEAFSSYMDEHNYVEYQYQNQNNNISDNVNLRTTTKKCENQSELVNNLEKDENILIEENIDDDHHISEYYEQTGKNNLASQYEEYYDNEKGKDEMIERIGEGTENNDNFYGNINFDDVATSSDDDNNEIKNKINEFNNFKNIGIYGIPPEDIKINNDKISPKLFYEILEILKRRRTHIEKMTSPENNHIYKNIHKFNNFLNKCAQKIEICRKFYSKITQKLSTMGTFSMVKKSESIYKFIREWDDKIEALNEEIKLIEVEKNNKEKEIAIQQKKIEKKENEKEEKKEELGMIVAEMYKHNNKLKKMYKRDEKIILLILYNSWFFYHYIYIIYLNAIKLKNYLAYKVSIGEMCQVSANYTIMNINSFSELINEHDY
UniProt A0A509AJV2: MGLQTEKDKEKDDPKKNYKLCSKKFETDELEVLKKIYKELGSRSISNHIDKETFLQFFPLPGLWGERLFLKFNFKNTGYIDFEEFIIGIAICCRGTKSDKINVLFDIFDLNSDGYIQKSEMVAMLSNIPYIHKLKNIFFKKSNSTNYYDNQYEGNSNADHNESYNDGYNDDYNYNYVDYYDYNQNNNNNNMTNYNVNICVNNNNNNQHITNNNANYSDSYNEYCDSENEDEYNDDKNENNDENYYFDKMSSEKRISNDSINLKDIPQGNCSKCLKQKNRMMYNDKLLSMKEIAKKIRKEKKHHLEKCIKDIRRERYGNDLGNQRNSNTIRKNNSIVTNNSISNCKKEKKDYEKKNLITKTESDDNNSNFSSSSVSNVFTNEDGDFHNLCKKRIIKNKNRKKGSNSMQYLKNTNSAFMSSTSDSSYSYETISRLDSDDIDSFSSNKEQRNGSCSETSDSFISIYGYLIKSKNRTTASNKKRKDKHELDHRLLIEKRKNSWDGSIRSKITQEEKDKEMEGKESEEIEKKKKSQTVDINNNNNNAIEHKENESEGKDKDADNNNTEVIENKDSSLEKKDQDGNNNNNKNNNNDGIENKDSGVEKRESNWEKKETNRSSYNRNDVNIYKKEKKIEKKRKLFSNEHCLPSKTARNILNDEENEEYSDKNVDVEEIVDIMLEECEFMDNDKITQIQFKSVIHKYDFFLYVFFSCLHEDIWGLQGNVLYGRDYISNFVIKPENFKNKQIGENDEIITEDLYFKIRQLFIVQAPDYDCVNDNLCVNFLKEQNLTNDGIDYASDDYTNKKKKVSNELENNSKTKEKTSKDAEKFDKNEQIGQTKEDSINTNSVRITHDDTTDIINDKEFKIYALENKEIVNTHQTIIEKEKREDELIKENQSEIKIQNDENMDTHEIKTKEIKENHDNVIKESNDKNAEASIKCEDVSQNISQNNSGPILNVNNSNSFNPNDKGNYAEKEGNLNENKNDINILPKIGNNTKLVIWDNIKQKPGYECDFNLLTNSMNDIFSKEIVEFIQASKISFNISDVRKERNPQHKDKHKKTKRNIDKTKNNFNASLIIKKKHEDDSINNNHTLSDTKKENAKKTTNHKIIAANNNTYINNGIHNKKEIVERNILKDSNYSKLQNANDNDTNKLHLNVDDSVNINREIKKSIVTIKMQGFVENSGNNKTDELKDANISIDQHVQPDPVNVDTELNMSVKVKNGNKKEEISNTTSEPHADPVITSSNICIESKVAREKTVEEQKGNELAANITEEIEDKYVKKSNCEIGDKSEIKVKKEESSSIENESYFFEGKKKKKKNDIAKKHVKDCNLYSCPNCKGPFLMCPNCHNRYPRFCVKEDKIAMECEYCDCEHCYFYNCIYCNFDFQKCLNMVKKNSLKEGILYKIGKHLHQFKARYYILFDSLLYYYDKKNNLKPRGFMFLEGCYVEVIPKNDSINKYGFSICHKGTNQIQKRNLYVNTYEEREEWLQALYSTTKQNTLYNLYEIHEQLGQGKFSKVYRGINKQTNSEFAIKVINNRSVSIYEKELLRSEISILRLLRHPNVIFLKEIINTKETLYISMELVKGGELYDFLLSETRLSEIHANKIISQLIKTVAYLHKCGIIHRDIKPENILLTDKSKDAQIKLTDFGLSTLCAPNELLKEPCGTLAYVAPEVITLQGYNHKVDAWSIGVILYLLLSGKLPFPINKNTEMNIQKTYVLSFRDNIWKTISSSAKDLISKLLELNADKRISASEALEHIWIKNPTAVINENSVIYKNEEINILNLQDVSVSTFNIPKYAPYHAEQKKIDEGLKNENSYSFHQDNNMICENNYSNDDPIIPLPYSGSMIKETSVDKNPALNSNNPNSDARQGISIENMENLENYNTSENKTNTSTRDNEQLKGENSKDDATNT
UniProt A0A509ASV2: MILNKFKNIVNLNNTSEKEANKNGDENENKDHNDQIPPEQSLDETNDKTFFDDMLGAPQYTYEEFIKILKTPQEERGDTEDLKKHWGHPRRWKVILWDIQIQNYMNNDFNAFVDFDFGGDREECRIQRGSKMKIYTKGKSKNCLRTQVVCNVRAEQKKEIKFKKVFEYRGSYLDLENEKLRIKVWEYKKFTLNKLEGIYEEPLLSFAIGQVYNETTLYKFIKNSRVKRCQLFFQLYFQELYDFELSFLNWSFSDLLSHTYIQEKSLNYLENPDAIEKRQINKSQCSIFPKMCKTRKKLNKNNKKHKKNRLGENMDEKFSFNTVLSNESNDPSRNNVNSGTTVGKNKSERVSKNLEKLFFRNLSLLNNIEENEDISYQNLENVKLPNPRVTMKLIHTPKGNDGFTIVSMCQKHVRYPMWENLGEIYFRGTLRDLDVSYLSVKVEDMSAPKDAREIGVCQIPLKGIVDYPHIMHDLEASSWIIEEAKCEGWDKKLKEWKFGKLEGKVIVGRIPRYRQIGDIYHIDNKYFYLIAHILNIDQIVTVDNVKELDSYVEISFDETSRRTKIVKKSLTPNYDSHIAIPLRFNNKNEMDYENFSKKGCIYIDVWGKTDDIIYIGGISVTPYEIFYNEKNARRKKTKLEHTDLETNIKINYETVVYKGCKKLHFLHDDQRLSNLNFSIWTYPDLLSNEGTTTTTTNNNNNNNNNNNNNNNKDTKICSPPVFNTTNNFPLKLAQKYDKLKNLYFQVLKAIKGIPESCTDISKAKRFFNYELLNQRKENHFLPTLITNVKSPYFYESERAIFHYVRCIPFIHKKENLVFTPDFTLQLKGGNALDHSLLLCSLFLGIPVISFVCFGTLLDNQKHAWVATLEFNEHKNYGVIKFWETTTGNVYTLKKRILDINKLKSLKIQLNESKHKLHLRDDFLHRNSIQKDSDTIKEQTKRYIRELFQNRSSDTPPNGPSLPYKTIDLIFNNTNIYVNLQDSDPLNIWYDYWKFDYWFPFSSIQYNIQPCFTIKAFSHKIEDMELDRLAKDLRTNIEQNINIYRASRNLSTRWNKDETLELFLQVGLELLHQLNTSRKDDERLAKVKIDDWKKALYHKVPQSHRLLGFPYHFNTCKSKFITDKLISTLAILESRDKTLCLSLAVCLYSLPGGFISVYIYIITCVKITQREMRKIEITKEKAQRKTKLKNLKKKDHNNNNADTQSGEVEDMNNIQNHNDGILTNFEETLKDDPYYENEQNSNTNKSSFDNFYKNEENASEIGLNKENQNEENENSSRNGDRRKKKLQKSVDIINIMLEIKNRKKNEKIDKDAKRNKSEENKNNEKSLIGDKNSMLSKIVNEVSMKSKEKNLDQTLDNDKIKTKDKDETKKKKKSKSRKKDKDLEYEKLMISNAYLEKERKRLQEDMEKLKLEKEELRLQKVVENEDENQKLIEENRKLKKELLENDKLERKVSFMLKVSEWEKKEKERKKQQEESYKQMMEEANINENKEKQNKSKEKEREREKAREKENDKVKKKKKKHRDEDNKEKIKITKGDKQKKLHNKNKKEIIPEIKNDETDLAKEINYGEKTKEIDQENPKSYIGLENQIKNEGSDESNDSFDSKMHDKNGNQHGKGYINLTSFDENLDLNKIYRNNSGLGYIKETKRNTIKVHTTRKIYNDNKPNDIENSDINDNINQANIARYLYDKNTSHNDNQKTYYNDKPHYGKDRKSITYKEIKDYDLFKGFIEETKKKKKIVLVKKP

Target: PbRpt3-mCherry (endogenous PbRpt3 tagged with mCherry at the C-terminus in P. berghei) (Plasmodium berghei)
Test: affinity purification with mass spectrometry; RFP-Trap beads on soluble extracts of mixed trophozoite-schizont PbRpt3-mCherry parasites, overnight at 4 °C, 20 mM Tris, 150 mM NaCl, 0.5% Triton X-100, pH 7.5; parental wild-type line as control; four biological replicates; DIA nanoLC-MS/MS

Row | Substance | binding
1 | phosphoinositide-binding protein PH2 (P. berghei) (from UniProt A0A509ASP7) | binds
2 | phosphoinositide-binding protein PX1 (P. berghei) (from UniProt A0A509AH92) | binds
3 | phosphoinositide-specific phospholipase C (PI-PLC, P. berghei) (from UniProt A0A509ATV4) (enzyme) | binds

Continued, values first:

Row | binding | Substance
4 | binds | calcium-dependent protein kinase 7 (CDPK7, P. berghei) (from UniProt A0A509AJV2) (enzyme)
5 | binds | double C2-like domain-containing protein (DOC2, P. berghei) (from UniProt A0A509ASV2)

No constants are given. Whether binding was seen depends on the method and setting. In cells and extracts the contact can be indirect. A yes stands for co-enrichment or nearness to the bait. Other partners may have been found.
